Taken from: PubChem BioAssay AID1259254 (NCATS, 2017)
Purpose: 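Genome-wide screen for genes that prevent DNA re-replication in cancer cells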 (primary screen). Cell system: human HCT116 colorectal cancer cells. Knock-down reagent: single siRNA against human genes. Duration: 3 days. Measurement: 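Imaged Hoechst DNA stain sorts each cell into a cycle phase by DNA amount; per plate, G2 fraction set to 0% for non-targeting and 100% for GMNN siRNA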. Scale: G2 robust z-score and G2 cells, % of GMNN control: higher = more G2 cells, more excess DNA replication; raw share of cells in G2: higher = larger share of cells with G2 DNA content. Rule for the call: 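An siRNA counts as active if its G2 robust z-score lies at least 5 MADs above the screen median; here such calls match roughly 38% of GMNN control or more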.
This is a random part of about 59,000 reagents. About 1,550 of them (2.6%) count as active. 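G2 share is only a proxy for re-replication; each gene was hit by three separate siRNAs, and active genes were retested.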 Raw values are not corrected between plates. Reagents against one gene are numbered here. No sequences are given here. Not stated in the record: the amount of reagent.

target gene,reagent no.,G2 robust z-score,"G2 cells, % of GMNN control",raw share of cells in G2 (%),Call
CLCN4 (Cl-/H+ antiporter 4),1,0.665,7.64,8.07,inactive
CLCN4 (Cl-/H+ antiporter 4),2,-1.1,-4.76,3.17,inactive
CLCN4 (Cl-/H+ antiporter 4),3,-0.0176,2.84,5.49,inactive
RFX8 (regulatory factor X8),1,-0.583,-1.14,2.94,inactive
RFX8 (regulatory factor X8),2,1.1,10.7,7.37,inactive
RFX8 (regulatory factor X8),3,-0.536,-0.805,3.96,inactive
RFX8 (regulatory factor X8),4,1.21,11.5,8.17,inactive
RFX8 (regulatory factor X8),5,1.4,12.8,8.76,inactive
RFX8 (regulatory factor X8),6,1.45,13.2,8.44,inactive
GJA3 (gap junction protein alpha 3),1,-0.188,1.64,4.11,inactive
GJA3 (gap junction protein alpha 3),2,-0.98,-3.93,3.01,inactive
GJA3 (gap junction protein alpha 3),3,0.238,4.64,4.79,inactive
MBOAT4 (membrane bound ghrelin O-acyltransferase MBOAT4),1,-0.636,-1.51,3.04,inactive
MBOAT4 (membrane bound ghrelin O-acyltransferase MBOAT4),2,-0.579,-1.1,3,inactive
MBOAT4 (membrane bound ghrelin O-acyltransferase MBOAT4),3,-0.693,-1.91,2.47,inactive
SLC25A51,1,-0.486,-0.454,5.46,inactive
SLC25A51,2,-0.778,-2.51,3.89,inactive
SLC25A51,3,0.0652,3.43,5.77,inactive
FRMD6 (FERM domain containing 6),1,-0.796,-2.63,3.04,inactive
FRMD6 (FERM domain containing 6),2,-0.987,-3.98,2.14,inactive
FRMD6 (FERM domain containing 6),3,-0.913,-3.45,0.809,inactive
KGD4 (alpha-ketoglutarate dehydrogenase subunit 4),1,2.65,21.6,13.3,inactive
KGD4 (alpha-ketoglutarate dehydrogenase subunit 4),2,2.48,20.4,9.39,inactive
KGD4 (alpha-ketoglutarate dehydrogenase subunit 4),3,-0.388,0.24,3,inactive
DCAF5 (DDB1 and CUL4 associated factor 5),1,3.97,30.9,18.8,inactive
DCAF5 (DDB1 and CUL4 associated factor 5),2,-0.58,-1.11,3.45,inactive
DCAF5 (DDB1 and CUL4 associated factor 5),3,-0.213,1.47,3.87,inactive
SMIM3 (small integral membrane protein 3),1,-0.457,-0.247,3.98,inactive
SMIM3 (small integral membrane protein 3),2,-0.332,0.631,3.2,inactive
SMIM3 (small integral membrane protein 3),3,1.35,12.5,6.89,inactive
SRRD (SRR1 domain containing),1,0.154,4.05,5.28,inactive
SRRD (SRR1 domain containing),2,1.07,10.5,7.68,inactive
SRRD (SRR1 domain containing),3,1.31,12.2,9.84,inactive
ZNHIT3 (zinc finger HIT-type containing 3),1,1.52,13.7,8.08,inactive
ZNHIT3 (zinc finger HIT-type containing 3),2,0.949,9.64,10.3,inactive
ZNHIT3 (zinc finger HIT-type containing 3),3,-0.4,0.156,3.4,inactive
JAM2 (junctional adhesion molecule 2),1,0.699,7.89,7.46,inactive
JAM2 (junctional adhesion molecule 2),2,-0.0958,2.29,5.56,inactive
JAM2 (junctional adhesion molecule 2),3,-0.0582,2.56,3.84,inactive
ADAMTS12 (ADAM metallopeptidase with thrombospondin type 1 motif 12),1,4.17,32.3,19.3,inactive
ADAMTS12 (ADAM metallopeptidase with thrombospondin type 1 motif 12),2,1.84,15.9,9.71,inactive
ADAMTS12 (ADAM metallopeptidase with thrombospondin type 1 motif 12),3,-0.94,-3.64,2.9,inactive
DENND2C (DENN domain containing 2C),1,-0.43,-0.0589,3.58,inactive
DENND2C (DENN domain containing 2C),2,0.0288,3.17,4.02,inactive
DENND2C (DENN domain containing 2C),3,-0.525,-0.723,2.53,inactive
SCNN1B (sodium channel epithelial 1 subunit beta),1,2.12,17.9,11.8,inactive
SCNN1B (sodium channel epithelial 1 subunit beta),2,0.48,6.34,6.93,inactive
SCNN1B (sodium channel epithelial 1 subunit beta),3,-0.016,2.86,5.49,inactive
NDUFS5 (NADH:ubiquinone oxidoreductase subunit S5),1,0.0364,3.22,4.26,inactive
NDUFS5 (NADH:ubiquinone oxidoreductase subunit S5),2,-0.863,-3.1,4.16,inactive
NDUFS5 (NADH:ubiquinone oxidoreductase subunit S5),3,-1.56,-7.98,2.31,inactive
TCEA2 (transcription elongation factor A2),1,-1.32,-6.29,2.05,inactive
TCEA2 (transcription elongation factor A2),2,-1.05,-4.41,3,inactive
TCEA2 (transcription elongation factor A2),3,0.806,8.64,7.95,inactive
SRPK2 (SRSF protein kinase 2),1,-1.03,-4.25,4.2,inactive
SRPK2 (SRSF protein kinase 2),2,-0.578,-1.1,5.04,inactive
SRPK2 (SRSF protein kinase 2),3,-0.373,0.344,4.15,inactive
"SRRT (serrate, RNA effector molecule)",1,0.751,8.25,6.56,inactive
"SRRT (serrate, RNA effector molecule)",2,5.8,43.8,22.7,active
"SRRT (serrate, RNA effector molecule)",3,0.391,5.72,5.08,inactive
NR1I2 (nuclear receptor subfamily 1 group I member 2),1,-0.531,-0.77,5.42,inactive
NR1I2 (nuclear receptor subfamily 1 group I member 2),2,-1.23,-5.66,2.61,inactive
NR1I2 (nuclear receptor subfamily 1 group I member 2),3,5.92,44.6,18.7,active
CALCRL (calcitonin receptor like receptor),1,-0.648,-1.59,5.27,inactive
CALCRL (calcitonin receptor like receptor),2,-0.101,2.25,5.3,inactive
CALCRL (calcitonin receptor like receptor),3,6.02,45.4,17.2,active
SESN3 (sestrin 3),1,-0.837,-2.92,2.85,inactive
SESN3 (sestrin 3),2,4.04,31.4,12.6,inactive
SESN3 (sestrin 3),3,0.0348,3.21,4.19,inactive
